Data source: PubChem BioAssay AID1259308 (NCATS, 2017)

Screen: 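Knock-downs that increase output of a recombinant reporter protein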 (primary screen)
Cells: human HEK293 embryonic kidney cells stably expressing firefly luciferase (HEK-CMV-Luc2-Hygro)
Reagent: single siRNA against human genes, 0.8 pmol siRNA per well
Timing: 72 h
Measurement: 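Luciferase light (ONE-Glo) measured on one replicate plate set and viability (CellTiter-Glo) on the other, scaled to a negative control siRNA, with robust z-scores and luciferase per cell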
Scale: total luciferase, z-score and total luciferase, % of control: higher = more reporter protein produced; luciferase per cell, z-score: higher = more reporter output per viable cell
Active means: 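Active when the median/MAD z-score for overall luciferase is greater than 3; a gene was taken forward for validation with new siRNAs if at least two of its three siRNAs passed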
Meaning of the calls: active = raised luciferase; inactive = no rise
Shown is a random part of about 59,000 reagents tested. About 1,510 of all reagents (2.6%) count as active. 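Calls use total luciferase alone and ignore viability, so some active siRNAs may act by altering cell number.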 The numbers tell different reagents against one gene apart. Further read-outs or replicates are left out here. No sequences are given here.

Target gene,reagent no.,"total luciferase, z-score","total luciferase, % of control","luciferase per cell, z-score",Call
RPS28 (ribosomal protein S28),1,-2.85,25.1,-2.19,inactive
RPS28 (ribosomal protein S28),2,-2.78,26.5,-2.25,inactive
RPS28 (ribosomal protein S28),3,-2.27,36.8,-2.38,inactive
SLC12A8,1,3.16,145,2.76,active
SLC12A8,2,0.464,91.1,0.797,inactive
SLC12A8,3,3.32,148,2.75,active
ZNF888 (zinc finger protein 888),1,0.476,91.4,0.205,inactive
ZNF888 (zinc finger protein 888),2,-0.473,72.5,-0.326,inactive
ZNF888 (zinc finger protein 888),3,0.171,85.3,0.772,inactive
FPGS (folylpolyglutamate synthase),1,1.08,103,0.752,inactive
FPGS (folylpolyglutamate synthase),2,1.28,107,1.64,inactive
FPGS (folylpolyglutamate synthase),3,1.37,109,0.373,inactive
STEAP1 (STEAP family member 1),1,-0.277,76.4,-1.06,inactive
STEAP1 (STEAP family member 1),2,-0.976,62.5,-1.95,inactive
STEAP1 (STEAP family member 1),3,-0.946,63.1,-1.79,inactive
NKX2-8 (NK2 homeobox 8),1,-0.183,78.3,0.0886,inactive
NKX2-8 (NK2 homeobox 8),2,0.248,86.8,0.00962,inactive
NKX2-8 (NK2 homeobox 8),3,-0.912,63.7,-1.12,inactive
ZNF837 (zinc finger protein 837),1,0.454,90.9,0.145,inactive
ZNF837 (zinc finger protein 837),2,0.549,92.8,0.67,inactive
ZNF837 (zinc finger protein 837),3,0.68,95.4,0.387,inactive

Not a retest: entries from further up.
Target gene,reagent no.,"total luciferase, z-score","total luciferase, % of control","luciferase per cell, z-score",Call
RPS28 (ribosomal protein S28),2,-2.78,26.5,-2.25,inactive
RPS28 (ribosomal protein S28),3,-2.27,36.8,-2.38,inactive
SLC12A8,1,3.16,145,2.76,active

More results:
Target gene,reagent no.,"total luciferase, z-score","total luciferase, % of control","luciferase per cell, z-score",Call
KRT25 (keratin 25),1,-0.618,69.6,0.141,inactive
KRT25 (keratin 25),2,-0.0864,80.2,0.598,inactive
KRT25 (keratin 25),3,2.4,130,1.61,inactive
JAGN1 (jagunal vesicle mediated transporter 1),1,3.8,158,3.89,active
JAGN1 (jagunal vesicle mediated transporter 1),2,0.758,97,1.55,inactive
JAGN1 (jagunal vesicle mediated transporter 1),3,0.833,98.4,-0.104,inactive
PTPN23 (protein tyrosine phosphatase non-receptor type 23),1,0.76,97,1.3,inactive
PTPN23 (protein tyrosine phosphatase non-receptor type 23),2,1.54,112,1.38,inactive
PTPN23 (protein tyrosine phosphatase non-receptor type 23),3,3.6,154,3.4,active
GJA10 (gap junction protein alpha 10),1,-0.881,64.4,0.161,inactive
GJA10 (gap junction protein alpha 10),2,-0.234,77.2,-0.673,inactive
GJA10 (gap junction protein alpha 10),3,-0.874,64.5,-0.288,inactive
PTHLH (parathyroid hormone like hormone),1,0.158,85,-0.0909,inactive
PTHLH (parathyroid hormone like hormone),2,5.01,182,3.37,active
PTHLH (parathyroid hormone like hormone),3,1.73,116,3.01,inactive
CAP2 (cyclase associated actin cytoskeleton regulatory protein 2),1,-0.456,72.8,-0.255,inactive
CAP2 (cyclase associated actin cytoskeleton regulatory protein 2),2,3.9,160,4.16,active
CAP2 (cyclase associated actin cytoskeleton regulatory protein 2),3,0.143,84.7,0.153,inactive
